Screen size: about 330,000 compounds; about 7,700 (2.3%) were called active. This list was built around the results that the source calls inconclusive (neither active nor inactive); the mix of calls is not that of the screen. Calls follow the shape of the dose curve; as a rule, active = well fitted inhibition curve with a large enough effect; inconclusive = small, poorly fitted or top-dose-only effect, or effect the other way; inactive = flat fitted curve, though single readings scatter. Potencies beside an inconclusive call are fits to weak or partial responses and may not hold up.
Test: qHTS screen for small molecules that inhibit ELG1-dependent DNA repair in human embryonic kidney (HEK293T) cells expressing luciferase-tagged ELG1; also: nearly all actives have a fitted effect of over 55% in size
Conditions: HEK293T ELG1-luciferase reporter, luminescence, 16 h, DNA damage induced by 5-fluorouridine; activity change, negative = inhibition: at 46.1 µM (top of the series)
Procedure, shortened: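 Step one: seed 2,000 cells per well. Step two: pin-transfer compound or DMSO alongside 5-fluorouridine. Step three: incubate 16 hr, 37 °C, 5% CO2. Step four: add ONE-Glo, wait 30 min, read luminescence.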
% is scaled to controls: 0 for no effect and ±100 for the full control effect; potency is read from the fitted curve at half-maximal effect.

Row | Structure (SMILES) | Potency | activity change, negative = inhibition
1 | CCOC(=O)c1c(C)[nH]c(C(=O)OCc2ccc(F)cc2)c1C | inconclusive: 3.66 µM [activator, full curve] | –
2 | COCCNC(=O)C1CCCN(S(=O)(=O)c2c(C)noc2/C=C/c2cccs2)C1 (configuration not stated) | inconclusive: 29.1 µM [inhibitor, single point] | –
3 | Cc1ccc(CCNC(=O)NC(C)(C)C)cc1 | inconclusive: 20.6 µM [activator, partial curve] | –
4 | CCN(CC)S(=O)(=O)c1ccc(OC)c(NC(=O)c2cc(=O)[nH]c3ccccc23)c1 | inconclusive: 29.1 µM [inhibitor, single point] | –
5 | COc1ccc2c(CC(=O)OCC(=O)N3CCc4ccccc43)coc2c1 | – | inactive: 3.27%
6 | Cc1ccc(-n2cc(-c3ccccc3)[nH]c2=O)cc1F | inconclusive: 9.2 µM [activator, partial curve] | –
7 | CCC(C)(C(=O)NC1CCCCC1)N(Cc1ccco1)C(=O)c1ccc2c(c1)OCO2 (configuration not stated) | – | inactive: -0.359%
8 | O=C(Oc1c(Cl)cc(Cl)c2cccnc12)N1CCCCC1 | inconclusive: 10 µM [activator, partial curve, poor fit] | –
9 | Brc1ccc(OCc2nc3ccccc3[nH]2)cc1 | inconclusive: 14.6 µM [activator, partial curve] | –
10 | O=C(CCS(=O)(=O)Cc1ccccc1)N1CCc2ccccc2C1 | – | inactive: -0.0317%
11 | O=C(NC(=S)NCc1ccc(F)cc1)c1ccccc1 | – | inactive: 11.8%
12 | O=C(NC1CCN(c2ncccn2)CC1)c1ccccc1Cl | – | inactive: 0%
13 | CCc1cc2cc(C)ccc2nc1SCC(=O)N1CCN(C(=O)c2ccco2)CC1 | inconclusive: 29.1 µM [inhibitor, single point] | –
14 | O=C(Nc1ccc(C(=O)N2CCOCC2)cc1)c1cccc([N+](=O)[O-])c1 | – | inactive: -16.2%
15 | CCN(C(=O)COC(=O)c1[nH]c(C)c(C(C)=O)c1C)c1c(N)n(Cc2ccccc2)c(=O)[nH]c1=O | – | inactive: -0.961%
16 | O=C(Nc1ccccn1)c1csc2c1CCCC2 | inconclusive: 8.2 µM [activator, partial curve] | –
17 | Cc1ccc(CCc2nnc(SCC(=O)Nc3ccccc3Cl)n2-c2ccccc2)o1 | inconclusive: 23.1 µM [inhibitor, partial curve, poor fit] | –
18 | CC(NC(=O)CCC(=O)c1cccs1)c1ccccc1 (configuration not stated) | inconclusive: 0.73 µM [activator, partial curve, poor fit] | –
19 | COc1ccccc1S(=O)(=O)CC(O)COc1ccc(F)cc1Cl (configuration not stated) | – | inactive: 3.65%
20 | CC1CCCN(CCCNC(=O)c2cn(C)c3ccc(S(=O)(=O)N(C)C4CCCCC4)cc3c2=O)C1 (configuration not stated) | – | inactive: 10.3%
21 | CN(C(=O)c1ccc(NC(=O)Cc2cccc(NC(=O)C3CCCN(C(=O)CCc4ccccc4)C3)c2)cc1)C1CCCC1 (configuration not stated) | inconclusive: 18.3 µM [inhibitor, single point] | –
22 | CC(C)(C)C(=O)Nc1ccc(-c2cc3cc(Cl)ccc3o2)cc1 | inconclusive: 1.46 µM [activator, full curve] | –
23 | Cc1ccc(S(=O)(=O)N2[C@@H](c3ccc(Cl)cc3)C(C(=O)O)=C[C@H]2C(C)(C)C)cc1 | – | inactive: -0.352%
24 | COc1ccc(N2CCN(C(=O)c3ccc(NS(=O)(=O)c4cccc(F)c4)cc3)CC2)cc1 | – | inactive: -23.6%

Row | Structure (SMILES) | Potency | activity change, negative = inhibition
25 | CCC(=O)Nc1cccc(NC(=S)NC(=O)c2cccc(C)c2)c1 | inconclusive: 4.61 µM [activator, single point] | –
26 | COc1ccc(/C=C2\SC(=S)N(CC3CCCO3)C2=O)cc1 (configuration not stated) | inconclusive: 23.1 µM [activator, partial curve] | –
27 | COc1ccc(OC)c(/C=N\NC(=O)c2cc3c(ccc4ccccc43)o2)c1 | active: 16.4 µM | –
28 | CCOC(=O)c1c(C)[nH]c(N=Nc2cc(C(=O)O)cc(C(=O)O)c2)c1C | – | inactive: 17%
29 | C/C(=N\NC(=O)c1ccn(C)n1)c1ccc(NC(=O)C2CCC2)cc1 | – | inactive: 13.6%
30 | O=C(NCCOc1ccccc1)c1cccc2c1C(=O)c1ccc(Cl)cc1S2(=O)=O | inconclusive: 16.4 µM [activator, single point] | –
31 | COC(=O)CS(=O)(=O)c1nnc([C@H](Cc2ccccc2)NC(=O)OC(C)(C)C)o1 | inconclusive: 20.6 µM [inhibitor, single point] | –
32 | CCOC(=O)N1C(=O)[C@@](CC)(c2ccccc2)N1C(=O)OCC | – | inactive: -9.04%
33 | CCOC(=O)c1ccc(NC(=S)NNC(C)(C)C)cc1 | inconclusive: 10.3 µM [activator, partial curve] | –
34 | Cc1ccc(CSc2nnc(-c3cccnc3)o2)cc1 | inconclusive: 29.1 µM [activator, single point] | –
35 | CCOc1ccc(NC(=O)c2ccc(S(=O)(=O)N(C)C)cc2)cc1 | – | inactive: -8.97%
36 | O=C(NCc1ccc(F)cc1)c1cc(-c2ccco2)on1 | inconclusive: 16.4 µM [activator, single point] | –
37 | Cc1cc2c(cc1S(=O)(=O)NCCc1ccc(Cl)cc1)OCC(=O)N2 | – | inactive: -22.2%
38 | CCS(=O)CCSc1nc2ccccc2s1 (configuration not stated) | inconclusive: 20.6 µM [activator, partial curve] | –
39 | Cc1cc(C)nc(SCC(=O)Nc2ccc(S(=O)(=O)N3CCCCC3)cc2)n1 | inconclusive: 23.1 µM [inhibitor, single point] | –
40 | CC1=C(C)/C(=N/OC(=O)c2cccc([N+](=O)[O-])c2)C=CC1=O | inconclusive: 29.1 µM [inhibitor, single point] | –
41 | COc1cc(CN2CCNC(=O)C2CC(=O)NCCCC2CCCC2)cc(OC)c1 (configuration not stated) | – | inactive: 27%
42 | CC(=O)Nc1ccc(Nc2cc(C)nc3c(-c4ccc(Cl)cc4)cnn23)cc1 | inconclusive: 7.31 µM [activator, partial curve] | –
43 | CCCCC(=O)N(CCOC)c1nnc(-c2ccccc2C)s1 | inconclusive: 23.1 µM [inhibitor, single point] | –
44 | COc1ccc(N2CCN(CC(=O)c3ccc(O)c(C)c3O)CC2)cc1 | – | inactive: -10.1%
45 | Cc1cc(C)nc(SCC(=O)c2ccc(F)cc2)n1 | – | inactive: 20.7%
46 | COc1ccc(-c2nc(CN(CC3CCC(=O)N3)C(C)C)c(C)o2)c(C)c1C (configuration not stated) | inconclusive: 29.1 µM [activator, single point] | –
47 | Cc1ccc(C2C(N)C(=O)N2c2ccc(C)cc2)cc1 (configuration not stated) | – | inactive: -5.13%

Another view of twelve compounds above.

| Row | Structure (SMILES) | Potency | activity change, negative = inhibition |
| --- | --- | --- | --- |
| 4 | CCN(CC)S(=O)(=O)c1ccc(OC)c(NC(=O)c2cc(=O)[nH]c3ccccc23)c1 | inconclusive: 29.1 µM [inhibitor, single point] | – |
| 5 | COc1ccc2c(CC(=O)OCC(=O)N3CCc4ccccc43)coc2c1 | – | inactive: 3.27% |
| 8 | O=C(Oc1c(Cl)cc(Cl)c2cccnc12)N1CCCCC1 | inconclusive: 10 µM [activator, partial curve, poor fit] | – |
| 13 | CCc1cc2cc(C)ccc2nc1SCC(=O)N1CCN(C(=O)c2ccco2)CC1 | inconclusive: 29.1 µM [inhibitor, single point] | – |
| 14 | O=C(Nc1ccc(C(=O)N2CCOCC2)cc1)c1cccc([N+](=O)[O-])c1 | – | inactive: -16.2% |
| 16 | O=C(Nc1ccccn1)c1csc2c1CCCC2 | inconclusive: 8.2 µM [activator, partial curve] | – |
| 21 | CN(C(=O)c1ccc(NC(=O)Cc2cccc(NC(=O)C3CCCN(C(=O)CCc4ccccc4)C3)c2)cc1)C1CCCC1 (configuration not stated) | inconclusive: 18.3 µM [inhibitor, single point] | – |
| 23 | Cc1ccc(S(=O)(=O)N2[C@@H](c3ccc(Cl)cc3)C(C(=O)O)=C[C@H]2C(C)(C)C)cc1 | – | inactive: -0.352% |
| 25 | CCC(=O)Nc1cccc(NC(=S)NC(=O)c2cccc(C)c2)c1 | inconclusive: 4.61 µM [activator, single point] | – |
| 29 | C/C(=N\NC(=O)c1ccn(C)n1)c1ccc(NC(=O)C2CCC2)cc1 | – | inactive: 13.6% |
| 37 | Cc1cc2c(cc1S(=O)(=O)NCCc1ccc(Cl)cc1)OCC(=O)N2 | – | inactive: -22.2% |
| 44 | COc1ccc(N2CCN(CC(=O)c3ccc(O)c(C)c3O)CC2)cc1 | – | inactive: -10.1% |

Reference: PubChem BioAssay AID504467 (National Center for Advancing Translational Sciences (NCATS), 2011)
